Results on one molecule are retold here after publication PMC8800533.

Results are given in words; binding and its absence hold for the method and conditions named. In cells and extracts the contact can be indirect. Binding calls can cover weak binding; strength is not graded here.

Assay [1] addresses endogenous zebrafish Bms1l (zebrafish (endogenous in embryos)). The experiment in a line: co-IP; endogenous proteins extracted from zebrafish embryos (3dpf WT; Bms1l^163 sample); Bms1l precipitated, Ttf1 and Rcl1 detected by blot.
Assay [2] addresses endogenous zebrafish Bms1l^sq163 mutant protein (zebrafish (endogenous in embryos)). Described as above.

B1: endogenous zebrafish Rcl1 (protein, UniProt A0A8M1N1Q3 1-367)
chain: MEFEGCSGFRQRLVLSTLSGKPVKIRNIRSKDDNPGLRDFEASFIRMLDKLTNGTRIEINQTGTVLFYQPGLLYGGSVEHECNVQRSVGYYLEALLMLAPFMKTPIKAVLKGITNHPTDPSVDLLKVTAVPLMKRFGINGDGLEIKVVKRGMAPGGGGEVHFSCPVSRSMKPVQLTEAGKIKRIRGTAFSVRVSPQMANRIVDSARSILNKFIPDIYIYTDHMKGPNSGKSPGFGLVLVAETLNGVFLGAEVVSTPQGQGEMQLPEDLGRNCAKLLLEEIYRGGCVDSTNQSLALLYMTLGQQEVSKTLLGPLSPYTMDFLRHIRDFFQIMFKIETQKPSEDECKGGEKVLMTCVGAGYNNISKSIK
As for B1, the binding entry in assay [1] and in assay [2] was “binds” throughout.
